# Measurements: PubChem BioAssay AID504467 (National Center for Advancing Translational Sciences (NCATS), 2011)
# Out of some 330,000 compounds screened, about 7,700 (2.3%) were called active. The inconclusive results got no clear call from the source; some entries with a clear call stand among them for comparison. The call rests on the fitted dose curve; in most records, active means well fitted inhibition curve with a large enough effect; inconclusive means small, poorly fitted or top-dose-only effect, or effect the other way; inactive means flat fitted curve, though single readings scatter. A potency beside an inconclusive call is a rough fit, not a confirmed value.
# Assay: qHTS screen for small molecules that inhibit ELG1-dependent DNA repair in human embryonic kidney (HEK293T) cells expressing luciferase-tagged ELG1; further: nearly all actives have a fitted effect of over 55% in size
# Conditions: HEK293T ELG1-luciferase reporter, luminescence, 16 h, DNA damage induced by 5-fluorouridine; series mostly up to 46.1 µM
# How it was run: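 Overnight (16 hr) co-exposure of 2,000 cells/well to 5-fluorouridine and compound at 37 °C preceded detection. Luciferase was quantified via ONE-Glo luminescence; loss of signal denotes inhibition.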
# Potency means the concentration at half of the fitted maximal effect.
row,Compound,Potency
1,COc1cccc(NC(=O)c2ccco2)c1,"inconclusive: 16.4 µM [activator, partial curve]"
2,CC(C)(C)OC(=O)NCCCCCC(=O)N/N=C/c1coc2ccccc2c1=O,"inconclusive: 23.1 µM [activator, single point]"
3,COc1cccc(-c2nnc(NC(=O)c3ccc(S(=O)(=O)N4CC(C)OC(C)C4)cc3)o2)c1 (stereo unspecified),active: 2.59 µM
4,Cc1ccc(C2=NN=C(NC(=O)CSc3nnc4c5ccccc5n(C)c4n3)SC2)cc1,"inconclusive: 16.4 µM [activator, single point]"
5,O=C(COc1ccccc1)NCC(=O)N1CCCCCC1,"inconclusive: 23.1 µM [activator, single point]"
6,Cc1ccccc1NC(=S)N(Cc1cccnc1)Cc1ccccc1Cl,inactive
7,O=C(NCCCNC(=O)c1cccs1)c1cccs1,inactive
8,CC1(C)Cc2c(C#N)c(N3CCCC3)nc(-c3ccco3)c2CO1,"inconclusive: 29.1 µM [inhibitor, single point]"
9,Cc1ccc(C)c(S(=O)(=O)NCC(c2ccc3c(c2)OCO3)N2CCOCC2)c1 (stereo unspecified),"inconclusive: 10.3 µM [activator, single point]"
10,O=C(CN1CCN(Cc2ccccc2)CC1)Nc1ccccc1-c1ccccc1,"inconclusive: 18.3 µM [inhibitor, single point]"
11,CCCC(=O)Nc1ccc(C(=O)NNC(=S)NC(=O)c2ccc(Br)o2)cc1,"inconclusive: 7.3 µM [inhibitor, partial curve]"
12,CCCCOC(=O)C1CN(c2ccccc2)N=C1C(=O)OCC (stereo unspecified),inactive
13,CCCCN1C2=NCCCN2c2ccccc21,"inconclusive: 0.259 µM [activator, single point]"
14,Cc1ccc(N(CC(=O)NCc2ccc(F)cc2)S(=O)(=O)c2c(C)n[nH]c2C)cc1,inactive
15,CCNC(=S)Nc1ccc(N2CCCCC2)cc1,inactive
16,COc1ccccc1N1CCN(C(=O)CSc2nnc3c4ccccc4nc(Cc4ccccc4)n23)CC1,active: 9.2 µM
17,CCOC(=O)C1=C(c2cccc(Oc3ccccc3)c2)NC(=S)NC1C (stereo unspecified),"inconclusive: 23.1 µM [inhibitor, single point]"
18,CC/C(=N\NC(=S)NC(C)C)c1ccc(OC)c(OC)c1,inactive
19,COc1cc(/C=N\NC(=O)c2ccc(Cn3nc([N+](=O)[O-])c(Cl)c3C)o2)ccc1O,"inconclusive: 18.4 µM [inhibitor, partial curve]"
20,COC(=O)N/N=C/c1ccc(Oc2ccccc2)cc1,"inconclusive: 23.1 µM [activator, partial curve]"
21,O=C(NCc1nc2ccccc2[nH]1)c1ccc(Cl)c(S(=O)(=O)N2CCCC2)c1,inactive

# From compound 4 as far as 7, copied from above:
row,Compound,Potency
4,Cc1ccc(C2=NN=C(NC(=O)CSc3nnc4c5ccccc5n(C)c4n3)SC2)cc1,"inconclusive: 16.4 µM [activator, single point]"
5,O=C(COc1ccccc1)NCC(=O)N1CCCCCC1,"inconclusive: 23.1 µM [activator, single point]"
6,Cc1ccccc1NC(=S)N(Cc1cccnc1)Cc1ccccc1Cl,inactive
7,O=C(NCCCNC(=O)c1cccs1)c1cccs1,inactive
